The values below come from PMC6476931.

Protein sequences, listed by entry. Tags and fused reporters are not part of them. Residues count along the entry.
UniProt Q9KI13, residues 51-895: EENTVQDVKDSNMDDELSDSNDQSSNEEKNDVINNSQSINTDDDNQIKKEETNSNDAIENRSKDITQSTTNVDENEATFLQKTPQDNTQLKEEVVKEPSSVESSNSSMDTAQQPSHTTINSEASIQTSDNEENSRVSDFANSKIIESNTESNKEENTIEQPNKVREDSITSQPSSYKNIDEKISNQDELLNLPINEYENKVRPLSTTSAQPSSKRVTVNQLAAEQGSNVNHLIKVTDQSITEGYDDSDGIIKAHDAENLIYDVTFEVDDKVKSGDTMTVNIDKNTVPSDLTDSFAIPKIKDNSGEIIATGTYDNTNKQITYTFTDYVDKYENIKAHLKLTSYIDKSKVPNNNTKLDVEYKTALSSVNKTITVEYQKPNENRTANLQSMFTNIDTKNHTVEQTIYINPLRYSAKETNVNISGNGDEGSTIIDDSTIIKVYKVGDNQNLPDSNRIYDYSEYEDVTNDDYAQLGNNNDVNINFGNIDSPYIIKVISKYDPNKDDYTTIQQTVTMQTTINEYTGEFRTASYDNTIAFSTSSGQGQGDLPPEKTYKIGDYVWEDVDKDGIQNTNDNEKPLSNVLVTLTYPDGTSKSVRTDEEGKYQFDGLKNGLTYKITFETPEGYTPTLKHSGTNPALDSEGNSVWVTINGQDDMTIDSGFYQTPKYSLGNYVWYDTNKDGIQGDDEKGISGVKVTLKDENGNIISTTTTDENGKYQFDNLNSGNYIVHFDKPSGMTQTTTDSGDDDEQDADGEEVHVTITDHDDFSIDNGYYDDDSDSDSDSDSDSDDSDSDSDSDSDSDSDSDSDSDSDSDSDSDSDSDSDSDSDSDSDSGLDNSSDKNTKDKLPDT

These are yes or no findings as the source states them, for the method shown. Some results given as binding are weak or reduced against the parent protein; the word gives no strength.

This experiment has as its target SdrG (UniProt Q9KI13). Briefly: ELISA; competition: Fg coated (5 μg/ml); GST-vWbp-N (6 nM), GST-Coa-N (400 nM) or SdrG (50 nM) mixed with increasing concentrations of Fg β-chain (1-25) peptide or scrambled peptide; detected with HRP anti-GST or anti-His; both purified. A general note: An ELISA detects its analyte on a solid surface through an enzyme-linked reagent.

For QGVNDNEEGFFSARGHRPLDKKREE [Fg β-chain peptide (1-25)], the binding entry is reported as “binds”.
